According to patent US12414947B2, “Use of FGFR inhibitors for treatment of idiopathic short stature” (CEDARS-SINAI MEDICAL CENTER, priority 2019, dated 2025):

Assays:
[1] = tested on: pERK1/2 and pAKT signaling in Patient normal fibroblast cells
Excerpt: FIG. 4 depicts signaling effects. […] Test working hypothesis using Patient's normal fibroblast cells as the model system. Fibroblasts, grown in αMEM+15% FBS till ˜80% confluency, were serum-starve for 18 hr in αMEM+0.1% BSA.
(§1) In vitro assays, with read-outs: signaling (pERK, pAKT), proliferation/survival assays (WST-1).

[2] = tested on: AKT signaling in osteogenic cells derived from hMSC; conditions: 200 nM, 30 min pretreatment; IGF-I 100 ng/ml for 0.5 h; serum free media
Excerpt: as §1

Structure (SMILES): COc1cc(OC)cc(N(CCNC(C)C)c2ccc3ncc(-c4cnn(C)c4)nc3c2)c1 [Erdafitinib, erdafitinib]
- background activated pERK1/2 and pAKT signaling ([1]; 100 nM-300 nM, serum-starved, 30 min pre-treatment, lysates 2 hr post-treatment): strongly suppressed
- reversal of signaling inhibition by growth factors ([1]; IGF-I 100 ng/ml, FGF2 40 ng/ml, IGF-2 100 ng/ml): partially reversed by IGF-I and IGF2 but not by FGF2
- pAKT activated by IGF-I and IGF-2 ([1]; all concentrations of erdafitinib (0-300 nM)): remains activated
- AKT signaling inhibition and effect of IGF-I [2]: reversed by IGF-I
